Laboratory results reported in PubChem BioAssay AID2685 (National Center for Advancing Translational Sciences (NCATS), 2010).
The other results are listed elsewhere or left out. The main result of the screen is listed elsewhere. These columns were measured beside it and carry no call. Compounds called inactive in the main read-out are mostly missing here. Words in brackets tell the shape of the fitted curve; partial curves, single points and poor fits give uncertain potencies.

Experiment: qHTS Assay for Lipid Storage Modulators in Drosophila S3 Cells;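 as to cell number change: cells counted by Cell Tracker Red CMTPX staining in the red channel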
Settings: BODIPY lipid droplet fluorescence, 18-24 h; for cell number change: measured here: cell count max response, cells fed with added oleic acid
In short: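 Laser-scanning cytometry quantifies lipid droplet accumulation (500–530 nm total intensity; droplet/cell object ratio) in oleic acid-fed (400 uM added) Drosophila S3 cells treated with a concentration series. 20 uM Triacsin C defined 100% inhibition.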

[1] = measured here: lipid fluorescence (Fed channel) AC50, cells fed with added oleic acid
[2] = measured here: cell number channel AC50, cells fed with added oleic acid

Compound | cell number change [%] | AC50 [1] | AC50 [2]
CC1CCCCN1CCNC(=O)c1ccc2c(c1)N(Cc1ccccc1F)C(=O)c1ccccc1S2=O (stereo not drawn) | 4.28 | 0.00461 µM [rising, full curve, poor fit] | 
CC1=CC=CC2=NC(=O)CC(C)(C(=O)N(CC(=O)NC3CCCC3)c3ccccc3C)N12 (stereo not drawn) | 1.55 | 2.59 µM [falling, partial curve] | 4.61 µM [falling, partial curve, poor fit]
COc1cccc(NC(=O)c2cccc(OC)c2OC)c1 |  | 6.51 µM [rising, partial curve] | 
[N-]=[N+]=NCCN1CCN(CCc2ccccc2)CCC1=O | -1.8 | 16.4 µM [rising, partial curve] | 
Cc1ccnc(NS(=O)(=O)c2ccc(NS(=O)(=O)c3cc(Cl)ccc3Cl)cc2)n1 | -4.03 | 0.00461 µM [falling, full curve, poor fit] | 
Cc1cc(C(=O)N/N=C/C=C/c2ccc([N+](=O)[O-])cc2)n[nH]1 | 19.9 | 20.6 µM [rising, partial curve] | 
COC(=O)c1ccc(CNC(=O)c2cc(COc3cncc(Cl)c3)on2)cc1 | -31.7 | 29.1 µM [falling, single point] | 29.1 µM [falling, single point]
COc1ccc(N2C(=O)/C(=C/c3ccc([N+](=O)[O-])cc3)C=C2c2ccccc2)cc1 | 33.6 | 6.51 µM [falling, single point] | 
O=C(Oc1ccc(Cl)c2cccnc12)c1cccc([N+](=O)[O-])c1 | -79.7 | 13 µM [falling, partial curve, poor fit] | 18.4 µM [falling, single point]
O=S(=O)(Nc1nc2ccc(S(=O)(=O)N3CCCCC3)cc2s1)c1ccccc1 | 15.9 |  | 0.058 µM [rising, full curve, poor fit]
COc1ccc(C(C)(C)C)cc1NC(=O)c1cncc(Br)c1 | -19.4 | 23.1 µM [falling, single point] | 
CC(=O)Nc1ccc(NCC(O)COc2ccccc2)cc1 (stereo not drawn) | -45.2 | 29.1 µM [falling, single point] | 29.1 µM [falling, single point]
C/C(=N\NC(=O)c1nnn(-c2nonc2N)c1CN(C)c1ccccc1)c1ccc(O)cc1 | -1.53 |  | 
O=C(NCc1ccco1)C(c1cccnc1)N(C(=O)Cn1nnc2ccccc21)c1ccc(F)cc1 (stereo not drawn) | 55.2 |  | 29.1 µM [rising, single point]
COc1ccc(S(=O)(=O)NCCC(=O)NC(C)c2ccccc2)cc1 (stereo not drawn) | 167 |  | 6.51 µM [falling, partial curve, poor fit]
Cc1nc2nc(CSc3nnc(C)s3)cc(=O)n2[nH]1 | -3.25 | 4.11 µM [falling, single point] | 
O=C(CCCn1c(=S)[nH]c2cc3c(cc2c1=O)OCO3)NCCc1ccccc1Cl | 8.73 | 6.51 µM [falling, single point] | 
Cc1ncc(CN2CCCC(C(=O)Nc3ccc(-c4ccco4)cc3)C2)cn1 (stereo not drawn) | 17 | 29.1 µM [rising, single point] | 
CCN(c1ccc(N=Cc2c(O)n(Cc3ccc(OC)cc3)c(=O)c3ccccc23)cc1)C(C)C | -77.9 | 1.46 µM [falling, full curve, poor fit] | 29.1 µM [falling, single point]
O=C(NNC(=O)C1CC(c2cccs2)=NO1)Nc1ccc(Cl)cc1 (stereo not drawn) | 5.71 | 29.1 µM [rising, single point] | 
Cc1ccccc1CS(=O)(=O)CCC(=O)NCCN1CCN(c2cccc(Cl)c2)CC1 | 8.48 | 0.0058 µM [falling, full curve, poor fit] | 0.00651 µM [falling, full curve, poor fit]
CC1CCCCC1NC(=O)CN1c2cccc3cccc(c23)S1(=O)=O (stereo not drawn) | -14.8 | 7.31 µM [falling, partial curve] | 
CCOC(=O)C(C)Oc1cccc2c(=O)n(CC(=O)NCCc3ccc(OC)c(OC)c3)ccc12 (stereo not drawn) | -61 | 20.6 µM [falling, partial curve] | 14.6 µM [falling, partial curve]
CCS(=O)(=O)c1ccc2c(c1)N(S(C)(=O)=O)CC(C(=O)NC1CC1)O2 (stereo not drawn) | -9.64 |  | 2.59 µM [falling, single point]
Cc1ccc(N=CC2=C(O)CC(c3cccc(Cl)c3)CC2=O)cc1 (stereo not drawn) | 40.9 | 23.1 µM [rising, single point] | 6.51 µM [rising, single point]
COc1cccc(C(c2nnnn2CS(=O)(=O)c2ccc(C)cc2)N2CCN(C)CC2)c1OC (stereo not drawn) | 5.31 | 0.0731 µM [falling, full curve, poor fit] | 
O=C(Cn1cnc2ccccc21)c1ccccc1 | -27.4 | 20.6 µM [falling, single point] | 

Only AC50 [1], for four of the compounds above:
Compound	AC50 [1]
Cc1cc(C(=O)N/N=C/C=C/c2ccc([N+](=O)[O-])cc2)n[nH]1	20.6 µM [rising, partial curve]
COC(=O)c1ccc(CNC(=O)c2cc(COc3cncc(Cl)c3)on2)cc1	29.1 µM [falling, single point]
COc1ccc(N2C(=O)/C(=C/c3ccc([N+](=O)[O-])cc3)C=C2c2ccccc2)cc1	6.51 µM [falling, single point]
O=C(Oc1ccc(Cl)c2cccnc12)c1cccc([N+](=O)[O-])c1	13 µM [falling, partial curve, poor fit]

Sorted by length of the SMILES (largest number first): 3 of the compounds above
Compound | cell number change [%] | AC50 [1] | AC50 [2]
Cc1ccccc1CS(=O)(=O)CCC(=O)NCCN1CCN(c2cccc(Cl)c2)CC1 | 8.48 | 0.0058 µM [falling, full curve, poor fit] | 0.00651 µM [falling, full curve, poor fit]
CC1CCCCC1NC(=O)CN1c2cccc3cccc(c23)S1(=O)=O (stereo not drawn) | -14.8 | 7.31 µM [falling, partial curve] | 
Cc1nc2nc(CSc3nnc(C)s3)cc(=O)n2[nH]1 | -3.25 | 4.11 µM [falling, single point] | 

Next records:

Compound | cell number change [%] | AC50 [1] | AC50 [2]
C[C@@]12CCC=C[C@H]1[C@H](c1ccc(F)c(/C=C/c3ccccc3)c1)N(Cc1ccccc1)C2=O | 11.6 | 29.1 µM [rising, single point] | 
Cc1ccc(C(=O)N/N=C\c2ccccc2[N+](=O)[O-])cn1 | -16.8 | 0.116 µM [falling, full curve, poor fit] | 0.082 µM [falling, full curve, poor fit]
C=CCNc1nc(-c2cccc(OC)c2O)nc2ccccc12 | -44.9 | 29.1 µM [falling, single point] | 23.1 µM [falling, single point]
CC(=O)N1c2ccc([N+](=O)[O-])cc2NC(=O)CC1C (stereo not drawn) | -13 | 4.61 µM [rising, partial curve] | 5.17 µM [rising, partial curve]
CCN(CC(=O)Nc1c(F)cccc1F)C(=O)c1ccc(Cl)c(S(=O)(=O)N2CCCC2)c1 | 40.5 |  | 16.4 µM [rising, partial curve, poor fit]
N#Cc1cc2c(nc1SCc1ccc(Cl)nc1)CCCCC2 | 10.4 | 3.66 µM [rising, partial curve] | 
O=C(CN1CCN(Cc2ccccc2)CC1)N/N=C/C=C/c1ccccc1[N+](=O)[O-] | 17.2 | 2.59 µM [rising, partial curve] | 
O=C(c1cccc(OC2CCN(Cc3ccc(F)cc3)CC2)c1)N1CCCC1 | -0.872 | 29.1 µM [rising, single point] | 
O=C(OCCCOC(=O)c1ccccc1O)c1ccccc1O | -0.694 |  | 
Cc1cc(NC(=O)NN2CCOCC2)nn1-c1c(Cl)cccc1Cl | -0.963 | 0.651 µM [falling, full curve, poor fit] | 
COc1ccccc1OCC(=O)NCCC1=CCCCC1 | -23.8 | 29.1 µM [rising, single point] | 
Cc1c(C(=O)N/N=C/c2cccnc2)nnn1-c1nonc1N | -6.76 | 29.1 µM [rising, single point] | 
Cc1cc(=O)[nH]c(CN2CCC(c3ccccc3)CC2)n1 | -10.2 | 0.146 µM [falling, full curve, poor fit] | 0.103 µM [falling, full curve, poor fit]
CCN(CC)CCOC(=O)c1c(C)oc2ccc(O)cc12 | -60.4 |  | 10.3 µM [falling, partial curve]
Cn1c(=O)c2c(nc(CN3CCN(CCO)CC3)n2CCc2ccccc2)n(C)c1=O | 18.8 | 5.17 µM [rising, partial curve, poor fit] | 
C/C(=C\C(=O)c1ccccc1)Nc1ccc(Br)c(Cl)c1 | -15.5 | 0.13 µM [falling, full curve, poor fit] | 
O=C(N/N=C/c1cccnc1)c1ccc2ccccc2c1O | 19.5 | 29.1 µM [rising, single point] | 
CCOC(=O)c1c(C)[nH]c(=S)c(C#N)c1-c1ccc(OC)cc1 | 38.1 |  | 6.51 µM [rising, partial curve]
Cc1ccc(C(C)NC(=O)COC(=O)C2=COCCO2)cc1C (stereo not drawn) | -46.4 |  | 29.1 µM [falling, single point]
CCNc1nc(Cl)nc(N(NC(C)=O)C(C)CC)n1 (stereo not drawn) | -47.2 | 29.1 µM [falling, single point] | 29.1 µM [falling, single point]
COc1ccc(Cn2c(CCC(=O)Nc3ccc(CC#N)cc3)nc3cccnc32)cc1 | -70.6 |  | 29.1 µM [falling, single point]
Cc1ccc(NC(=O)CSc2nnc(-c3cc(C)[nH]n3)n2N)c(C)c1 | -5.42 |  | 
CCOc1ccc(N2C(=O)C3C4C=CC(CC4)C3C2=O)c([N+](=O)[O-])c1 (stereo not drawn) | 24.5 | 29.1 µM [rising, single point] | 
O=C(CCCC(=O)NCc1ccc(F)cc1)NCc1ccc(F)cc1 | 13.1 | 6.51 µM [falling, single point] | 6.51 µM [falling, single point]
Cn1c(=O)c(=O)n(C)c2cc(S(=O)(=O)N3CCCC3C(=O)NCc3cccnc3)ccc21 (stereo not drawn) | -30.2 | 9.2 µM [falling, single point] | 32.6 µM [falling, single point]
O=C(c1cccnc1)N1CCN(Cc2cccc(F)c2)CC1 | 63.4 | 1.84 µM [rising, partial curve] | 9.2 µM [rising, partial curve]
